Assay: Reactivity of NADH with NOC7 (absorbance at 340 nm), no Hb
Conditions: mixed with NOC7 in PBS, 25° C., 10 minutes

NC(=O)C1=CN([C@@H]2O[C@H](COP(=O)(O)OP(=O)(O)OC[C@H]3O[C@@H](n4cnc5c(N)ncnc54)[C@H](O)[C@@H]3O)[C@@H](O)[C@H]2O)C=CC1 [NADH, nicotinamide adenine dinucleotide (NADH)]
change of absorbance at 340 nm: decreased
